In the supplement of paper PMC10849652 one finds log2 fold change data, which are given here for 26 targets.

Amino acid sequences for entries named in this document (tags omitted). A change or cut given only in a name is not applied to a line headed by its entry.
UniProt O94901, whole entry, looked up: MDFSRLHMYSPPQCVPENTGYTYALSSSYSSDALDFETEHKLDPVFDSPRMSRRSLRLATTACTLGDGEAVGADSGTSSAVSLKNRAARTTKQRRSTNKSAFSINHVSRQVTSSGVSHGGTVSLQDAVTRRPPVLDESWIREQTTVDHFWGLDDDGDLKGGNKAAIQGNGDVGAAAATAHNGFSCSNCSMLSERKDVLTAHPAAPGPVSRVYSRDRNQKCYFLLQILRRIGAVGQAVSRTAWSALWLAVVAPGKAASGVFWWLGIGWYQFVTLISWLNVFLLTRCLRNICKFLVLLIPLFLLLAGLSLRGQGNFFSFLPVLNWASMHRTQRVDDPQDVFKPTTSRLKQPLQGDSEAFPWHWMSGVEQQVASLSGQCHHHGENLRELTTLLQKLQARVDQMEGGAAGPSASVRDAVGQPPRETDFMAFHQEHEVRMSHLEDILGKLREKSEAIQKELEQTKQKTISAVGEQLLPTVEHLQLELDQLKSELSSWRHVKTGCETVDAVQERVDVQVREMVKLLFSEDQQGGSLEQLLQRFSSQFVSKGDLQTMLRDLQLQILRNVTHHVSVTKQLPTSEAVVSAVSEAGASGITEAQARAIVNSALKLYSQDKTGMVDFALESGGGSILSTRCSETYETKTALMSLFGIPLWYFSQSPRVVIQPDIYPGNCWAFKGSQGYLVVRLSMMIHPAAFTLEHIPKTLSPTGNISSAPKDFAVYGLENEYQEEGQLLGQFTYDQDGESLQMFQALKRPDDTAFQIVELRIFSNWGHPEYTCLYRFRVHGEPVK
UniProt Q9Y2K9: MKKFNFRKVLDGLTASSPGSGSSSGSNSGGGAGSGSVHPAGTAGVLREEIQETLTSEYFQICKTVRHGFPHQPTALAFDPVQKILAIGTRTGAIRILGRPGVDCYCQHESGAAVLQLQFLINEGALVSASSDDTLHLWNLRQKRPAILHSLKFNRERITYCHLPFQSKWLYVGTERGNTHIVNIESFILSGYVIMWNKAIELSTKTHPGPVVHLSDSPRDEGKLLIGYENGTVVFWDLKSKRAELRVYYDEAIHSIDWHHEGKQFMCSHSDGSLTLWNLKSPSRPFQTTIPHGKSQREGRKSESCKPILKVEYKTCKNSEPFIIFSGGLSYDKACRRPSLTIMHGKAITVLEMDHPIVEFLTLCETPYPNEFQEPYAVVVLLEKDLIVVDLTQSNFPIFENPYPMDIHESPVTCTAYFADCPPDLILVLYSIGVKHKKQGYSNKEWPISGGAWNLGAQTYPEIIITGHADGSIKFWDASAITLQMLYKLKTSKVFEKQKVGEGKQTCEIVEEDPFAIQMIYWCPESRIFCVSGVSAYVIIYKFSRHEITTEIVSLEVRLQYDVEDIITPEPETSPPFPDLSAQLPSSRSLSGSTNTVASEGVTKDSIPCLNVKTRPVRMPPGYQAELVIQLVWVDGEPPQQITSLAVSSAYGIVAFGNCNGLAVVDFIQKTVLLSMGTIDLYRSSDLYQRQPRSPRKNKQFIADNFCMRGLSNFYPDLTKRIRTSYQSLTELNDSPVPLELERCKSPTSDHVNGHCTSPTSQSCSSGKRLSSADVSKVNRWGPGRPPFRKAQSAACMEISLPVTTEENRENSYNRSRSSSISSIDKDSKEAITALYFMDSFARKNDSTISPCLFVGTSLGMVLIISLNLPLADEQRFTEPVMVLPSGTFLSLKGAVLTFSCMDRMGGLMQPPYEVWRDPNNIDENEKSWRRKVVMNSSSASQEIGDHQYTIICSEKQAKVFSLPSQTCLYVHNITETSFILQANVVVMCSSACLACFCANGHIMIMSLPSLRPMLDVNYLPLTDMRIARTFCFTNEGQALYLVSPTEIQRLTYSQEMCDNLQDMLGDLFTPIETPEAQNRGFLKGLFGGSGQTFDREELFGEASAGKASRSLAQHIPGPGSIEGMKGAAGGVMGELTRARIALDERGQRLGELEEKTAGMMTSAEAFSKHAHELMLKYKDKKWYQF
UniProt Q8N2I9: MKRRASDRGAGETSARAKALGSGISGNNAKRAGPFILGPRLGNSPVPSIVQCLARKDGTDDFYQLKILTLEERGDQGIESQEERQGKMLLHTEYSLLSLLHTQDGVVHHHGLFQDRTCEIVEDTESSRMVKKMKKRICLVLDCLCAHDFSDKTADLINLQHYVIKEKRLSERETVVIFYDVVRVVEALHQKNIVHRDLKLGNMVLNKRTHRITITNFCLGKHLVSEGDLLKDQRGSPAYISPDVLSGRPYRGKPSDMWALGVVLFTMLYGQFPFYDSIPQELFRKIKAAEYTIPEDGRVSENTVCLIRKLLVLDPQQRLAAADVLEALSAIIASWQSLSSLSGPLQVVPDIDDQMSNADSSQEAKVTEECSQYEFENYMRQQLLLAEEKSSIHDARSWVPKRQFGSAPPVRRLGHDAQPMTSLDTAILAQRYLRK
UniProt Q8N2H4: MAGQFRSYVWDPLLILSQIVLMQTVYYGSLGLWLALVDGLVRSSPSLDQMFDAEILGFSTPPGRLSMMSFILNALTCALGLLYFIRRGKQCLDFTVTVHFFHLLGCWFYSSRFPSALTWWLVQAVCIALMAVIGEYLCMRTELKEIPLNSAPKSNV
UniProt Q15544, whole entry, looked up: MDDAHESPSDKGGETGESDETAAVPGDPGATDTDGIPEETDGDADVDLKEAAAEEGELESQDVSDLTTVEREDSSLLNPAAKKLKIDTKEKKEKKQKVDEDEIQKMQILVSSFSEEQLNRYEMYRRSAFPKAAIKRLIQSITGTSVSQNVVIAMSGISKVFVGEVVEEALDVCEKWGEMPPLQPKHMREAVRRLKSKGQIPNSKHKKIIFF
UniProt Q6P1N9: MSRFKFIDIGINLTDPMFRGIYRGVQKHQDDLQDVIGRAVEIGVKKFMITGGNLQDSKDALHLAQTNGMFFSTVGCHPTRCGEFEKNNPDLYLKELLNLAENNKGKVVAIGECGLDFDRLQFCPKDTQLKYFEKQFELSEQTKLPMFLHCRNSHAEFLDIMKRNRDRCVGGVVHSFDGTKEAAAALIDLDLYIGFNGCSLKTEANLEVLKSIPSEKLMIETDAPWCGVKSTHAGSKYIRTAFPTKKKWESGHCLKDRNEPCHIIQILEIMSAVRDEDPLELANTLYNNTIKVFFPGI
UniProt Q16514: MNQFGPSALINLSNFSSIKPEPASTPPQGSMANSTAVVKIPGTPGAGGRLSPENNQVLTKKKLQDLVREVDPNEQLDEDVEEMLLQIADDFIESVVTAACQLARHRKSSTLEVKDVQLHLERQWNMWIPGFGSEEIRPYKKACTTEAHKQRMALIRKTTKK
UniProt Q96BN2: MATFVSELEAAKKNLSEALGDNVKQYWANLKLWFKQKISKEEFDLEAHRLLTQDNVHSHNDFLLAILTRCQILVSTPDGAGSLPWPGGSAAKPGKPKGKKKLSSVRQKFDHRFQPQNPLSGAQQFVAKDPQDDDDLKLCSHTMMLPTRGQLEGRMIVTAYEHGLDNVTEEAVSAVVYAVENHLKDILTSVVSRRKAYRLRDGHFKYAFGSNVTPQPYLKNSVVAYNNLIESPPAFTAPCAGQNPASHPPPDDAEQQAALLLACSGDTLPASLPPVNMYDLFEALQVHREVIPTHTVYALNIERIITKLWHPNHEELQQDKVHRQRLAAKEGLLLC
UniProt Q01995: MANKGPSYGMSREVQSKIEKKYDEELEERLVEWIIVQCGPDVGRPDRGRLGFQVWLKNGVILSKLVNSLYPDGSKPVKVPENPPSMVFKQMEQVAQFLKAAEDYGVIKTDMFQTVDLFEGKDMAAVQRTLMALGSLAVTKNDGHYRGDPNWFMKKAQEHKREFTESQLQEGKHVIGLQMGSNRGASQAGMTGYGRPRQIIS
UniProt Q8NBK3: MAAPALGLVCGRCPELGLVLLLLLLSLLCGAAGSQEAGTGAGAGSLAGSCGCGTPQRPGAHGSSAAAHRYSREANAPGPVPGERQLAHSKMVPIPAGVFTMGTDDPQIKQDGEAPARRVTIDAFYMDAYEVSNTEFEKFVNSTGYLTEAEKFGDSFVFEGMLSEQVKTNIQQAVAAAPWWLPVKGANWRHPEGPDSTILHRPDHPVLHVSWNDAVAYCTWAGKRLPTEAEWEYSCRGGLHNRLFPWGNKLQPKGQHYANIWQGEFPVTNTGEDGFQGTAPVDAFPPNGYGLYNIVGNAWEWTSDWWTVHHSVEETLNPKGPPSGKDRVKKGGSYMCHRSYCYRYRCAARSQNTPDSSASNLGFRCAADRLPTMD
UniProt Q8N300: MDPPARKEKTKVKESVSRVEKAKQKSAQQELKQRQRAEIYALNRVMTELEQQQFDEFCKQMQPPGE
UniProt Q8WXE9: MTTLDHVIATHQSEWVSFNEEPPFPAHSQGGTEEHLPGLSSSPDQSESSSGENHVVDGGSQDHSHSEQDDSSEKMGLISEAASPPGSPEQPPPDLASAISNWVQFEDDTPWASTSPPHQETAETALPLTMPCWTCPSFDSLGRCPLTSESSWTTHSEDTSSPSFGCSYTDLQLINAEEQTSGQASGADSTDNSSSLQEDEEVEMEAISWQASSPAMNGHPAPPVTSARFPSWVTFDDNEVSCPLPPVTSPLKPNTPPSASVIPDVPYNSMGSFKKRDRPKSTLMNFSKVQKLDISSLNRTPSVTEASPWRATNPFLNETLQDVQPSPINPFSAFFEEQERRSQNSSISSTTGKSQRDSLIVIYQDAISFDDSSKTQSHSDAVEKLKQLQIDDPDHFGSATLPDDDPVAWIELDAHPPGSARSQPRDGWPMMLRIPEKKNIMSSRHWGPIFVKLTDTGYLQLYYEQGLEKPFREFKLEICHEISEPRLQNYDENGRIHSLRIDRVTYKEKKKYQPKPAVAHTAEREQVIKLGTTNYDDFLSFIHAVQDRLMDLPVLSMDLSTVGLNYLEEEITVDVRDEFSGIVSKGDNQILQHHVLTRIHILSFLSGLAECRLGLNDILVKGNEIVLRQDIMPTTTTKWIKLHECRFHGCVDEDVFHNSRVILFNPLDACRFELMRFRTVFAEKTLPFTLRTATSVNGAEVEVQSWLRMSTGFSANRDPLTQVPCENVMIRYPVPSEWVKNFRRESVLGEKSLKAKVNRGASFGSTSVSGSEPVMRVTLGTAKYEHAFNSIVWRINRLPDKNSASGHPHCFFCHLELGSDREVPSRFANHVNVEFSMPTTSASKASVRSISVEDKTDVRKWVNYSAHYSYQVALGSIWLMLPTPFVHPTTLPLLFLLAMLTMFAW
UniProt Q6ZWJ1: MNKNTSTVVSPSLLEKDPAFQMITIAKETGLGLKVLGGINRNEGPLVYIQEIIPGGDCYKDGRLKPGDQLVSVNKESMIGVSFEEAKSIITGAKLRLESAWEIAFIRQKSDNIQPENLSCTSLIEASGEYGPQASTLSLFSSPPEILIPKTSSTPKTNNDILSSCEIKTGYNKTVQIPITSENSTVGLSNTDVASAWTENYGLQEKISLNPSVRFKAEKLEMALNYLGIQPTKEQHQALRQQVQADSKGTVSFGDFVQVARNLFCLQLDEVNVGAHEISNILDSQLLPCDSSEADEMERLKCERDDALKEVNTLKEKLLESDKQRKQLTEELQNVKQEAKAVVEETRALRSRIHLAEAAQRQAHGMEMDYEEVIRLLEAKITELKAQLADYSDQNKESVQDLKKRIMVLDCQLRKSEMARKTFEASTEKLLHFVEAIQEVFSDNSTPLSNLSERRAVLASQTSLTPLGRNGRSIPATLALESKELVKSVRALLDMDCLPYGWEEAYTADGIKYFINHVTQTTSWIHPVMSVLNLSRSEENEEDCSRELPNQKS
UniProt Q15542, whole entry, looked up: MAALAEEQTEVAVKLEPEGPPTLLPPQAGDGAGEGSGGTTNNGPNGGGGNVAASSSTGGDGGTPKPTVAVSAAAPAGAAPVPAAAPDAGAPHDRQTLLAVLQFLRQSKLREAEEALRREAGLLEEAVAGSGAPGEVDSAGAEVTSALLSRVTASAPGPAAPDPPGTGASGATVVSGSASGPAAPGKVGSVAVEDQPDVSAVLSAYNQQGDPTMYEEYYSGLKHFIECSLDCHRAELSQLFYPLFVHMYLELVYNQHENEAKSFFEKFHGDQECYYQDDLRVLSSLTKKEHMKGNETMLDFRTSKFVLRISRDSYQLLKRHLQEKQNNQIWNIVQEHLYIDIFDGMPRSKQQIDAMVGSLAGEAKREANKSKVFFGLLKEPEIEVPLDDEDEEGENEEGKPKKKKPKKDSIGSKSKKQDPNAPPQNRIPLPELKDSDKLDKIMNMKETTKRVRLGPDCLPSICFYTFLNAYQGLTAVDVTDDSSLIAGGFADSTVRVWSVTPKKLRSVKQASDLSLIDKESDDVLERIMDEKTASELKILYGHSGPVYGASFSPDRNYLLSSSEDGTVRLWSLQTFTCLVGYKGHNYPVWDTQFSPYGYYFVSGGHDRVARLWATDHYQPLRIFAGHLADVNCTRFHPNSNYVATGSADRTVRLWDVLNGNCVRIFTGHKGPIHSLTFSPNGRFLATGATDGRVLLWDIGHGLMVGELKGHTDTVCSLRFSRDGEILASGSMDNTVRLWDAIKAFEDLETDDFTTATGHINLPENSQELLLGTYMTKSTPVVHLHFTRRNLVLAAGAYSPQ

This is one part of the list.

Compound in the first assay: CC1=CC=C(C=C1)SC2=C3C=C(SC3=CN=C2)C(=O)N
Briefly: log2 fold change, soluble protein after heating vs DMSO (PISA); higher = thermal stabilisation; K562 cells, 10 uM, 30 min; active = over 0.2 and 3.5 SD of the protein, either way, in both replicates (recomputed). The essentials: (§1)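 Values are thermal stability changes relative to control samples and are taken from duplicates. They are stated as log2 fold changes. Before quantification by TMTpro 16plex LC-MS/MS with equalised channel sums, K562 cells at 2×10^6 cells/mL were treated with 10 μM compound for 30 min, heated in aliquots for 3 min across 48°C-58°C, pooled, extracted in PBS with 0.5% NP-40 at 4°C, and centrifuged at 21,000xg for 90 min to give the soluble supernatant.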
For TAOK2 (UniProt Q9UL54), the log2 fold change was inactive: 0.062.
Still for that read-out and setting: then STS (UniProt P08842), with inactive: 0.368; and STRIP2 (UniProt Q9ULQ0), with inactive: -0.054.
For TAF6L (UniProt Q9Y6J9), the log2 fold change is inactive: -0.055.
Same read-out and setting: then TBC1D12 (UniProt O60347), with inactive: 0.055; and SUN1 isoform 9 (UniProt O94901), with inactive: 0.029.
Take SUCO (UniProt Q9UBS9): the log2 fold change is inactive: 0.001.
On to SYTL4 (UniProt Q96C24), for which the log2 fold change is inactive: 0.038.
Take STXBP5L (UniProt Q9Y2K9): the log2 fold change was inactive: -0.102.
Same read-out and setting: then TACC2 (UniProt O95359), with inactive: 0.16; and STK36 (UniProt Q9NRP7), with inactive: -0.07; and STK40 isoform 4 (UniProt Q8N2I9), with inactive: -0.02.
Same read-out and setting: then SYS1 (UniProt Q8N2H4), with inactive: -0.061; and TAF11 (UniProt Q15544), with inactive: 0.
With TATDN1 isoform 2 (UniProt Q6P1N9), the log2 fold change is inactive: 0.232.
On the same count and under the same terms, to TAF12 (UniProt Q16514) belongs inactive: -0.045; to TADA1 (UniProt Q96BN2), inactive: 0.05; to TAGLN (UniProt Q01995), inactive: 0.292.
As for SUMF1 isoform 3 (UniProt Q8NBK3), the log2 fold change is inactive: 0.002.
The same measure, in the same setting: to SUZ12 (UniProt Q15022) belongs inactive: 0.054.
Still for that read-out and setting: then SVBP (UniProt Q8N300), with inactive: 0.026.
For TAZ (UniProt Q16635), the log2 fold change was inactive: 0.068.
STK35 (UniProt Q8TDR2): the log2 fold change was inactive: -0.108.

Compound in the next assay: CC1=NC(=CC=C1)C2=C(N=C(N2)C(C)(C)C)C3=CC4=NC=CN=C4C=C3
The assay is described as above. In a few lines: as §1
For TAOK2 (UniProt Q9UL54), the log2 fold change was inactive: 0.08.
Regarding STON2 isoform 3 (UniProt Q8WXE9), the log2 fold change is inactive: 0.051.
As to SUN1 isoform 9 (UniProt O94901), the log2 fold change was inactive: 0.04.
As to SUCO (UniProt Q9UBS9), the log2 fold change is inactive: 0.046.
On the same count and under the same terms, to STXBP5L (UniProt Q9Y2K9) belongs inactive: 0.136.
The same measure, in the same setting: then STXBP4 (UniProt Q6ZWJ1), with inactive: -0.035; and TAF12 (UniProt Q16514), with inactive: -0.072; and TAGLN (UniProt Q01995), with inactive: 0.142.
On the same count and under the same terms, then SUMF1 isoform 3 (UniProt Q8NBK3), with inactive: -0.089; and SUZ12 (UniProt Q15022), with inactive: -0.156; and TAF5 (UniProt Q15542), with inactive: -0.318.
